Experimental findings from PubChem BioAssay AID2685 (National Center for Advancing Translational Sciences (NCATS), 2010) are described below.

SMILES strings stand for the structures. This is one part of the list. Further columns of the screen follow, without active or inactive calls. Most of these compounds were active or inconclusive in the main read-out, so they are no random draw. The note in brackets gives the kind of curve behind each potency; many fits are weak.

A short description of this assay: qHTS Assay for Lipid Storage Modulators in Drosophila S3 Cells.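 For cell number change: cells counted by Cell Tracker Red CMTPX staining in the red channel.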 The conditions noted are these: BODIPY lipid droplet fluorescence, 18-24 h; for cell number change: measured here: cell count max response, cells fed with added oleic acid. The procedure, abridged: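 Drosophila S3 cells loaded with oleic acid (400 uM, as added) and compounds at several concentrations; lipid droplets imaged by 488-nm laser-scanning cytometry, 500–530 nm intensity and object ratio to cell channel. Percent activity normalized to 20 uM Triacsin C.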
Background: In qHTS, concentration-response curves come from the screen itself.

[1] abbreviates: measured here: cell number channel AC50, cells fed with added oleic acid.
[2] abbreviates: measured here: lipid fluorescence (Fed channel) AC50, cells fed with added oleic acid.

What is called AC50 is the concentration at which the activity in the assay is half-maximal. Low readings indicate activity at low concentration, high ones activity only at high concentration. On to `COc1ccc(-c2nc3ccccc3n2Cc2ccc(C)cc2)cc1`, for which the cell number change was determined as 43.2%. The AC50 under setting [1] was 18.4 µM [rising, single point]. Moreover, the AC50 under setting [2] is 18.4 µM [rising, partial curve].

Regarding `CC(=O)c1ccccc1NC(=O)C1CC(=O)N(c2ccc3c(c2)OCCO3)C1` (centres undefined), the cell number change is -3.61%. Besides, the half-maximal activity concentration (AC50) under setting [1] is 0.731 µM [rising, single point]. For the same compound, under setting [2], the AC50 was 29.1 µM [falling, partial curve, poor fit].

With `CCOc1cc(C2c3c(oc4cc(C)c(Cl)cc4c3=O)C(=O)N2Cc2ccco2)ccc1O` (centres undefined), the cell number change was -39.2%. Also, the AC50 under setting [1] is 29.1 µM [falling, single point]. For the same compound, the AC50 under setting [2] was 29.1 µM [falling, single point].

As to `CCOC(=O)c1c(C)c(C(=O)NCc2ccco2)c(C)n1Cc1ccccc1`, the cell number change is -12.4%. Further, the AC50 under setting [1] was 0.13 µM [falling, full curve, poor fit]. Also, the AC50 under setting [2] was 20.6 µM [rising, single point].

In the case of `Cc1ccc(N(C(=O)c2csnn2)C(C(=O)NC2CCCCC2)c2ccccn2)cc1` (centres undefined), the cell number change came out at 16.2%. In addition, under setting [2], the AC50 was 6.51 µM [falling, single point].

Regarding `Cc1cc(-n2nc(C)cc2C)nc(NS(=O)(=O)c2ccccc2Cl)n1`, the AC50 under setting [2] is 0.731 µM [rising, single point].

For `CCOc1ccccc1NC(=O)C(OC(=O)c1ccccc1NS(=O)(=O)c1cccs1)c1ccccc1` (centres undefined), the cell number change stood at 33.3%. Moreover, the AC50 under setting [1] is 2.06 µM [rising, full curve]. Under setting [2], the AC50 is 14.6 µM [falling, partial curve].

Consider `CCn1c(SCC(=O)Nc2nc(-c3ccccc3)cs2)nc2c1c(=O)n(C)c(=O)n2C`, for which the cell number change stood at 102%. The AC50 under setting [1] is 4.11 µM [rising, full curve]. The AC50 under setting [2] is 14.6 µM [rising, partial curve].

`COC(=O)C(CCCCNC(=O)c1ccc([N+](=O)[O-])cc1)NC(=O)c1ccc([N+](=O)[O-])cc1` (centres undefined): the cell number change came out at 6.05%. In addition, under setting [2], the AC50 was 0.058 µM [rising, full curve, poor fit].

Take `Cc1ccc(Nc2c([N+](=O)[O-])ccc3nonc23)c(C)c1`: the cell number change is -63.3%. In addition, the AC50 under setting [1] was 10.3 µM [falling, partial curve]. Moreover, the AC50 under setting [2] was 8.2 µM [falling, partial curve].

On to `Cc1cc(O)c(C(=O)c2ccccc2C(=O)O)cc1C`, for which the cell number change stood at 0.337%. For the same compound, under setting [2], the AC50 was 3.26 µM [rising, single point].

For `O=C(NCc1cccs1)c1cc(S(=O)(=O)N2CCOCC2)c(Cl)cc1Cl`, the cell number change came out at 5.45%. Moreover, the AC50 under setting [2] was 29.1 µM [rising, single point].

`COc1cc2c(cc1OC)C(COc1ccc(F)cc1)NCC2` (centres undefined): the cell number change was found to be 1.19%.

On to `COc1ccc(/C=C2/NC(=O)N(CC(=O)Nc3cccc(C)c3)C2=O)cc1O`, for which, under setting [2], the AC50 was 0.411 µM [rising, full curve].

Turning to `C=CCOc1c(Br)cc(CNc2ccc3[nH]c(=O)[nH]c3c2)cc1OCC`, the cell number change is -28.7%. Also, the half-maximal activity concentration (AC50) under setting [2] is 0.326 µM [falling, full curve, poor fit].

Regarding `CC(OC(=O)c1ccc2c(c1)OCO2)C(=O)NC1CCCCC1C` (centres undefined), the cell number change was 4.38%.

`COc1ccc(N2C(=O)C(F)(F)C2c2cccc(F)c2)cc1` (centres undefined): the cell number change was -5.6%. Also, the AC50 under setting [2] is 1.64 µM [falling, partial curve].

Turning to `Cc1cccc(N(CC(=O)NCc2ccco2)C(=O)CCC(=O)Nc2ccccn2)c1`, the cell number change is -8.93%. For the same compound, the AC50 under setting [1] was 0.00411 µM [falling, full curve, poor fit].

Consider `Cc1nc2ccccc2nc1OCC(=O)Nc1ccccc1`, for which the cell number change was -6.69%. For the same compound, the AC50 under setting [1] is 0.731 µM [rising, partial curve, poor fit]. The AC50 under setting [2] was 0.731 µM [rising, partial curve, poor fit].

As for `CCOc1cc(C(=O)NCCCn2ccnc2)cc(OCC)c1OCC`, the cell number change worked out at 24.7%. Also, the AC50 under setting [2] was 13 µM [rising, partial curve].

On to `CCOC(=O)N1CCN(C(=O)COC(=O)CNC(=O)c2ccc(OCC)c(OCC)c2)CC1`, for which the cell number change is -24.5%.

As for `CCOC(=O)c1ccc(NC(=O)CN(c2ccc(C)cc2)S(=O)(=O)c2c(C)n[nH]c2C)cc1`, the cell number change is -2.08%. In addition, under setting [1], the AC50 was 0.00517 µM [falling, full curve, poor fit].

Take `Cc1nnc(NC(=O)C2CCN(c3cnccn3)CC2)s1`: the cell number change came out at 54.3%. The AC50 under setting [1] was 29.1 µM [rising, single point]. For the same compound, the AC50 under setting [2] was 25.9 µM [rising, partial curve].

Regarding `O=C(/C=C/c1ccc(F)cc1)N1CCc2ccccc2C1`, the AC50 under setting [2] is 9.2 µM [rising, partial curve].

Consider `CCN(CC)CCCN1C(=O)C(=O)/C(=C(/O)c2ccc(C)cc2)C1c1ccccn1` (centres undefined), for which the cell number change was found to be 4.43%.

Turning to `C=CCn1c(SCC(=O)NC2CCCC2)nc2scc(-c3ccco3)c2c1=O`, the cell number change was found to be 14.7%. In addition, the AC50 under setting [2] is 0.651 µM [rising, partial curve, poor fit].

In the case of `CN1CCN(S(=O)(=O)c2ccc(Br)c3nsnc23)CC1`, the cell number change was -25.6%.

In the case of `CN1CCN(S(=O)(=O)c2ccc(N3CCN(S(=O)(=O)/C=C/c4ccccc4)CC3)nc2)CC1`, the cell number change is -37.6%. Besides, the AC50 under setting [1] was 29.1 µM [falling, single point].

For the compound `Cc1ccc(CNC(=O)c2cc(S(=O)(=O)N3CCOCC3)cn2C)cc1`, the cell number change came out at 12.4%. Also, under setting [2], the AC50 is 29.1 µM [rising, single point].

For the compound `CCC(C(=O)O/N=C(\N)c1ccc(Cl)cc1)c1ccccc1` (centres undefined), the cell number change is -10.4%. Further, the AC50 under setting [2] is 0.461 µM [falling, full curve, poor fit].

Turning to `COc1ccc(-c2c/c(=N\c3nc(-c4ccccc4)c(C)s3)c3ccccc3o2)cc1O`, the cell number change was -89.1%. Moreover, the AC50 under setting [1] is 29.1 µM [falling, single point].

On to `O=C(N/N=C/c1ccc(OCc2ccccc2)cc1)c1cccs1`, for which the cell number change is -24.5%. The AC50 under setting [2] was 0.00517 µM [falling, full curve, poor fit].

As for `O=C1/C(=C\c2ccc(Br)o2)Cc2ccccc21`, the cell number change was determined as 18.7%. Moreover, under setting [2], the AC50 is 0.731 µM [rising, single point].

Turning to `O=C(c1ccco1)N1CCN(CCOCCOc2cccc3ccccc23)CC1`, the cell number change worked out at 22.7%. Also, the AC50 under setting [2] was 6.51 µM [falling, single point].

As for `O=C(COC(=O)CCN1C(=O)c2ccccc2C1=O)Nc1ccccc1[N+](=O)[O-]`, the cell number change was found to be 31.4%. In addition, the AC50 under setting [2] was 29.1 µM [rising, partial curve, poor fit].

Turning to `Cc1ccc2nc(NC(=O)CCn3cccc3)sc2c1`, the cell number change came out at 36.9%.

With `COc1ccc(-c2nc(SC(C)C(=O)c3c(N)n(C)c(=O)n(C)c3=O)n[nH]2)cc1` (centres undefined), the cell number change stood at 9.34%. The half-maximal activity concentration (AC50) under setting [2] is 36.6 µM [falling, partial curve, poor fit].

Turning to `CCSc1nc(C)c(C)c(=O)[nH]1`, the cell number change came out at 1.34%. Besides, the AC50 under setting [2] was 13 µM [falling, partial curve].

As to `COc1cc(NC(=O)Cn2nnc(-c3ccncc3)n2)cc(OC)c1`, the cell number change came out at 20.1%. Moreover, the AC50 under setting [1] was 4.11 µM [rising, full curve, poor fit]. Besides, the AC50 under setting [2] was 6.51 µM [rising, single point].

For `CCC/C=N/NC(=O)c1cc(Br)ccc1O`, the cell number change is -15.6%. In addition, the AC50 under setting [2] was 1.03 µM [falling, full curve, poor fit].

With `CN(C)CCCN(C(=O)c1ccc(C(=O)c2ccccc2)cc1)c1nc2ccc(F)cc2s1`, the cell number change is 10.4%.

As to `O=C(NCCc1ccccc1)C1CCC(CNc2nc(=S)[nH]c3ccccc23)CC1` (centres undefined), the cell number change came out at 72.2%. In addition, the AC50 under setting [1] is 18.4 µM [rising, single point]. Further, the AC50 under setting [2] was 29.1 µM [rising, single point].

Turning to `O=C(CCC1CCCCC1)Nc1cccnc1`, the cell number change was determined as 32.9%. The AC50 under setting [1] is 0.731 µM [rising, full curve, poor fit].

In the case of `COc1ccc(-c2cc(C3CCN(c4ncccc4[N+](=O)[O-])CC3)[nH]n2)cc1`, the AC50 is 6.51 µM [rising, single point] under setting [1] and 29.1 µM [rising, single point] under setting [2].

For `Cc1ccc(S(=O)(=O)N(Cc2ccccc2)c2ccccn2)cc1[N+](=O)[O-]`, the cell number change came to 10.1%. Further, the AC50 under setting [2] is 0.164 µM [rising, full curve, poor fit].

As to `COc1ccc(N(CC(=O)NCCc2ccccc2)C(=O)CCC(=O)Nc2nccs2)cc1`, the cell number change turned out to be 7.94%. In addition, the AC50 under setting [2] was 0.651 µM [falling, partial curve, poor fit].

Turning to `COc1ccc(C(c2nnnn2C(C)(C)C)N2CCN(C)CC2)cc1OC` (centres undefined), the cell number change was -27.8%. In addition, under setting [1], the AC50 was 4.11 µM [falling, full curve, poor fit]. For the same compound, the AC50 under setting [2] is 18.4 µM [falling, partial curve].

As for `COc1ccc(CNS(=O)(=O)c2ccc(-c3ccc(=O)[nH]n3)s2)cc1OC`, the cell number change was -28.1%. Further, under setting [2], the AC50 was 23.1 µM [falling, single point].

On to `N#CCCSc1ccccc1NC(=O)c1cc(=O)c2ccccc2o1`, for which the cell number change turned out to be 34%. Under setting [1], the AC50 is 10.3 µM [rising, single point].

Turning to `COc1ccc(CCn2c(=N)c(S(=O)(=O)c3ccc(C)cc3)cc3c(=O)n4ccccc4nc32)cc1`, the cell number change was -2.59%. Further, under setting [2], the AC50 is 0.651 µM [rising, single point].

As to `OCC[C@H]1C[C@@H](O)[C@H](O)[C@]2(Cc3ccccc3O2)O1`, the cell number change is -8.8%.

On to `CCCCSc1nnc2c(n1)[nH]c1ccccc12`, for which the cell number change worked out at 5.16%. For the same compound, under setting [2], the concentration at half-maximal activity (AC50) was 29.1 µM [rising, single point].

With `COc1cc(/C=C2\C(=N)N3N=C(S(=O)(=O)CC(C)C)SC3=NC2=O)ccc1OC(=O)c1ccco1`, the cell number change is -22.6%. For the same compound, under setting [2], the AC50 was 18.4 µM [falling, single point].

In the case of `CCOc1c(C)cnc2c1c(=O)n(Cc1ccccc1Cl)c(=O)n2C`, the cell number change worked out at 18.7%.

As to `Cc1cccc(C)c1OCCN1CCOCC1`, the cell number change was determined as 22.3%.

In the case of `Cc1nc2sccn2c1-c1csc(NCc2ccccc2)n1`, the AC50 under setting [2] is 0.651 µM [rising, single point].

Consider `C/C(=N\OCC(=O)N/N=C/c1ccccc1)c1cccs1`, for which the cell number change came to 13.9%.

With `N#Cc1nc(-c2ccc(OCc3ccccc3)cc2)oc1NCCN1CCOCC1`, the cell number change is -3.68%. Besides, the AC50 under setting [1] is 0.164 µM [rising, partial curve, poor fit]. Under setting [2], the AC50 was 5.8 µM [rising, partial curve, poor fit].
